Measured values published in patent US10570454B2, “Methods of identifying individuals at increased risk of lung cancer” (Trustees of Boston University, priority 2007, dated 2020).
At least one structure is not confirmed: it was looked up by name or label, or the drawing left a doubt.

How the values were obtained:
Type in all cases: cell-based
PI3K [1] = test: PI3K kinase assay (PIP3 production) in insulin-stimulated BEAS-2B cells; details: BEAS-2B (bronchial airway cell line), insulin-activated, varying doses
Method: (§1) Insulin was used to activate the PI3K pathway in three different cell lines: (FIG. 5A) BEAS-2B (bronchial airway cell line), (FIG. 5B) BT549 (breast cancer cell line), and (FIG. 5C) HEK293 (human embryonic kidney cell line). The cell lines were then treated with varying doses of myo-inositol and LY-294002. PIP3 levels were measured to quantify the activation levels of the PI3K pathway (y-axis). […] Replication of these experiments produced similar results.
(§2) 80% confluent BEAS-2B, BT549, or HEK293 cells were starved in BEBM, RPMI, or DMEM medium, respectively (Clonetics, GibcoBRL). This media contained either 0.1% added supplements for the BEAS-2B cells or 0.1% fetal bovine serum for BT549 and HEK293 cells for 24 hrs. […] The production of PIP3 was evaluated by autoradiography and quantified by densitometry analysis and scintillation analysis. […]
(§3) A reduction in PI3K activity in patients that responded to myo-inositol with a regression of dysplasia in their airway reinforces the association between elevated PI3K activity levels and the presence of pre-neoplastic airway lesions. […] PI3K activity, as measured by PIP3 levels, was then quantified using a standard kinase assay protocol. For this experiment, three different cell lines were analyzed in replicate: BEAS-2B (airway), BT549 (breast cancer) and HEK293 (embryonic kidney). […]

PI3K [2] = test: PI3K kinase assay (PIP3 production) in insulin-stimulated BT549 cells; details: BT549 (breast cancer cell line), insulin-activated, varying doses
Method: as §1, §2, §3

PI3K [3] = test: PI3K kinase assay (PIP3 production) in insulin-stimulated HEK293 cells; details: HEK293 (human embryonic kidney cell line), insulin-activated, varying doses
Method: as §1, §2, §3

Measured: PI3K activity, as measured by PIP3 levels

O=c1cc(N2CCOCC2)oc2c(-c3ccccc3)cccc12 [LY-294002]
drop in PIP3 levels: all assays above
